Patent US8232584B2 (priority 2005, dated 2012)

System: monoclonal antibodies for PSA (Ab1)
Format: binding

In the case of “f-PSA: free prostate specific antigen, cancer marker protein, purchased from Calbiochem”, the “concentration down to which label-free detection was achieved” value (buffer solution, signal to noise >3, listed as PSA) is reported as “about 75 fg/ml” and the “PSA concentration giving well-defined conductance changes in serum” value (desalted undiluted donkey serum, 59 mg/ml total protein) is reported as ≤ 0.9 pg/mL.
